{"source": "patent US5480970A", "about": "“Metal chelators” (Resolution Pharmaceuticals, priority 1993, dated 1996)"}
{"assay": "Labelling chelators with 99m Tc (Sep-Pak separation)", "assay_type": "physicochemical", "details": "C-18 Sep-Pak, EtOH-saline (1:1) eluate"}
{"substance": "(Pic-Gly-Cys(Acm)-Gly)-ε-NH-Lys(-Asp-Gly-OH)-Lys-Tyr-Nleu-Phe-Leu- Nleu-for [RP-056, ID No. 13]", "Chelator (EtOH-saline eluate); extent of complexation of 99m Tc by radioactivity of eluted fractions": "78% of total"}
{"substance": "(Pic-Gly-Cys(Acm)-Gly)-εNH-Lys(-Gly-OH)-Tyr-Nleu-Phe-Leu-Nleu-for [RP-050, ID NO: 12]", "Chelator (EtOH-saline eluate); extent of complexation of 99m Tc by radioactivity of eluted fractions": "63% of total"}
{"substance": "(Pic-Gly-Cys-Gly)-εNH-Lys(-Gly-OH)-Tyr-Nleu-Phe-Leu-Nleu-for [RP-022, ID NO: 11]", "Chelator (EtOH-saline eluate); extent of complexation of 99m Tc by radioactivity of eluted fractions": "29% of total"}
{"substance": "(Pic-Ser-Cys(Acm)-Gly)-Lys-Pro-Pro-Arg-OH [RP-065, ID NO: 10]", "Chelator (EtOH-saline eluate); extent of complexation of 99m Tc by radioactivity of eluted fractions": "92% of total"}
{"substance": "(Pic-Ser-Cys(Acm)-Gly)-Thr-Lys-Pro-Pro-Arg-OH [RP-063, ID NO: 9]", "Chelator (EtOH-saline eluate); extent of complexation of 99m Tc by radioactivity of eluted fractions": "93% of total"}
{"substance": "Pic-Gly-Cys(Acm)-Gly-OH [RP-049, ID NO: 8]", "Chelator (EtOH-saline eluate); extent of complexation of 99m Tc by radioactivity of eluted fractions": "92% of total"}
